Data published in PubChem BioAssay AID1794845 (National Center for Advancing Translational Sciences (NCATS), 2023).
Out of some 6,900 compounds screened, fewer than 10 were called active. Calls come from the whole dose curve; as a rule, active = well fitted curve in the direction sought with a large enough effect; inconclusive = small, poorly fitted or top-dose-only effect, or another doubt; inactive = no such curve, though single readings can be large or run the other way. The list shows a part of the results.

Chains of the proteins cited; added tags and fusions are not shown. Lines headed by an entry give the natural chain unless they say otherwise; changes in a name come on top.
UniProt C7C422: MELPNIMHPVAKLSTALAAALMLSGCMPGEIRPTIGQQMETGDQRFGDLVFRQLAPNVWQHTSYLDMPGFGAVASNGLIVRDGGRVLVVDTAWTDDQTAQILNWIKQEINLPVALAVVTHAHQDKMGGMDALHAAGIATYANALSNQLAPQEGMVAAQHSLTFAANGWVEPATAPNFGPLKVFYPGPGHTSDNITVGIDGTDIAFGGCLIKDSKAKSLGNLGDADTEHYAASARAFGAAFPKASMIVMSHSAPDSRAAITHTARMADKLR

biological target: Metallo-beta-lactamase type 2 (Klebsiella pneumoniae) (UniProt C7C422); assay: qHTS to identify inhibitors of the New Delhi Metallo-beta-lactamase (NDM): primary screen against the NCATS Gemini Collection; conditions: NDM-1 enzyme, meropenem hydrolysis, absorbance 300 nm; at 38.4 µM (top of the series) unless noted; note: % of control where 0% means no effect
How it was run: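 Meropenem hydrolysis (50 uM final) by 2 nM NDM-1 read as 300 nm absorbance after 30 min, following >30 min compound–enzyme preincubation in HEPES pH 7.0 with 1 uM ZnSO4 and 0.01% Tween20.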

Activity % (negative = inhibition), inactive:
O=C1COc2ccc(S(=O)(=O)N3CCCn4nc(CO)cc4C3)cc2N1 2.86%, CN1CCC(C(=O)N2Cc3ccccc3CC3(CCN(C)C3)C2)CC1 (stereo not given) 0.867%, c1cc(-c2nc(C3CCOC3)nn2Cc2ccc3c(c2)OCO3)[nH]n1 (stereo not given) 8.71%, O=C(c1ccc(C(F)(F)F)cc1)N1CCC2(C1)C(=NC1CCCCC1)NC(=O)N2c1cccnc1 (stereo not given) 5.4%, COc1ccc(Cc2nnc3ccc(C(=O)N4CCN(Cc5ccccc5)CC4)cn23)cc1 0.58%, Cc1ccc(N2C(=O)N[C@@H]3CCN(C(=O)CC4(CC(=O)O)CCCC4)[C@@H]3C2=O)cc1 0.234% [at 57.5 µM], O=C1NCCCCCN(S(=O)(=O)c2cccs2)[C@H]2CCCC[C@@H]12 8.37%, CS(=O)(=O)N1CCC(OC2CCN(C(=O)Nc3ccccc3C(F)(F)F)CC2)CC1 0.281%, COc1cccc(CN2C[C@@H](CO)[C@H](NC(=O)C3CC3)C2)n1 4.02%, Cc1noc2c(-c3cnn(C)c3)cc(-c3cccnc3)nc12 -5.52% [at 57.5 µM], CCc1noc([C@@H]2CC(F)(F)CN2C(=O)c2cocn2)n1 8%, O=C(CCn1ccn2nc3c(c2c1=O)CCCC3)N1CCSCC1 5.47%, O=C1C(N2CCN(S(=O)(=O)c3cc(F)ccc3F)CC2)CCN1Cc1cccnc1 (stereo not given) 13.2%, O=C(C1CCCCC1)N1CCC(OC2CCN(Cc3cccnc3)CC2)CC1 -2.3%, O=C(CCc1nnn2c1CN(C(=O)C1CCCC1)CC2)N1CCOCC1 -3.97%, CCn1cc(S(=O)(=O)NCC2Cn3cccc3C(=O)N2C)cn1 (stereo not given) -1.08%, CCC(C)N1Cc2cc(NC(=O)Cc3cccc(OC)c3)ccc2OCC1=O (stereo not given) 3.07%, Cc1noc(C)c1-c1cc2c(cc(C)n2C)c(-c2ccnn2C)n1 44.8% [at 57.5 µM], Cc1nc(N2CCCCCC2)ncc1C(=O)O 0.287%, CCOC(=O)C1CCCN(C(=O)C2CCc3nnc(C4CC4)n32)C1 (stereo not given) -0.407%, O=C(NCc1ccncc1)C1CN(Cc2ccccn2)CC12CCOCC2 (stereo not given) 1.85%, CCCc1nc(C(=O)N2CC[C@H](CO)[C@H](O)C2)cs1 -0.0418%, Cc1cc(C(=O)NCC2(COc3ccc(S(C)(=O)=O)cc3)C[C@@H](O)[C@@H](O)C2)n(C)n1 (stereo not given in full) 16.8%, O=C(OCc1ccccc1)N1CCC2(CC1)C(=O)NN=C2C1CC1 3.02% [at 57.5 µM], CCc1nc2c(c(NCCn3nc(C)c(CC)c3C)n1)CCNCC2 8.06%, CCN(Cc1noc(C2CCC2)n1)C(=O)c1cc(C(C)C)n2ncnc2n1 0.51%, OC[C@H]1C[C@@H](NCc2ccc(F)cc2)[C@H](O)[C@@H]1O 2.08% [at 77.1 µM], Cc1ccccc1NC(=O)c1cc2n(n1)CC(c1ccc(Cl)cc1)OC2 (stereo not given) 1.14%, CCCC1CCN(C(=O)c2coc(COc3ccc4ccc(OC)cc4c3)n2)C1 (stereo not given) -7.62%, CCN1CCN(c2ccc(C(=O)N3CCCC(c4ccccc4)CC3)cn2)CC1 (stereo not given) 12.3%, Cn1ccc(Nc2cc3c(cn2)CN(CCc2ccccc2)CCN3)n1 29.4% [at 57.5 µM], Cc1nn(C(=O)CCCC(=O)N2CCC(CCOc3ccc(F)cc3)C2)c2ccccc12 (stereo not given) 22.6%, Cc1cccc(Cn2nc(C3CCCNC3)n(-c3ccccc3)c2=O)c1 (stereo not given) -11.8%, O=C(O)[C@H]1C[C@H](C(=O)NCc2ccccn2)CN(Cc2ccccc2)C1 12.3%, C[C@]1(CO)[C@H]2Cc3sc(NC(=O)c4cccs4)nc3[C@@H](CC(=O)O)[C@]2(C)CC[C@H]1O 8.34%, CCc1cc(N2CCC(NCCc3cccc(Cl)c3)CC2)nc(C)n1 0.815%, C[S+](=O)([O-])N1CCC2(C1)N=C(c1ccccn1)C(=O)N2 (stereo not given) 0.441% [at 57.5 µM], CCc1cc(C(=O)N2CCC(c3nnc(Cn4cncn4)n3C)CC2)no1 10.7%, COc1cc(CCC(=O)N2C[C@@H](C(N)=O)[C@H](c3nc(C)no3)C2)on1 10.5%, O=C1N2CCCC2CN1C1CCN(Cc2ccsc2)CC1 (stereo not given) 1.31% [at 57.5 µM], CC(C)(C)C(=O)Nc1nc2c(s1)C[C@@H]1[C@](C)(CO)[C@H](O)CC[C@@]1(C)[C@@H]2CC(=O)NC1CC1 -3.97%, COc1cccc(CN2CCC(Oc3ccccc3-c3nc(-c4ccncc4)no3)C2)c1 (stereo not given) 4.74%, CN(Cc1ccc(-c2ccccc2)cc1)C(=O)Cc1ccccn1 -0.709% [at 57.5 µM], COC(C(=O)Nc1ccnn1C1CCN(C(=O)CO)CC1)c1ccccc1 (stereo not given) -2.35%, Cc1cccc(-c2noc([C@@H]3Cc4nc[nH]c4CN3C(=O)c3ccc(-c4ccccc4)cc3)n2)c1 8.38%, Cc1ncc2c(c1CNC(=O)CC(C)c1ccccc1)CCNC2 (stereo not given) 13.6%, Cn1cc(CN2C[C@H](C(=O)NCc3ccccc3)C[C@H]2c2cccc(C(F)(F)F)c2)cn1 10.4%, c1c(-c2nc(C3CCOC3)no2)sc2c1CCCC2 (stereo not given) 23.4%, Cc1[nH]c(=O)[nH]c(=O)c1CC(=O)N[C@@H]1COCC[C@@H]1OCc1ccccc1 0.56%, CCn1cc(C(=O)N[C@@H]2CN(c3ncccn3)C[C@H]2CO)cn1 33.2%, COC[C@@H]1[C@H](C(=O)N2CCN(Cc3ccccc3)CC2)CCC(=O)N1C 25.1%, COc1cc(Cl)ccc1C(=O)N1CC[C@@](C)(O)[C@@H](O)C1 -1.7%, CCC(C)NC(=O)CN1CN(c2ccccc2)C2(CCN(C(=O)Nc3ccccc3C)CC2)C1=O (stereo not given) -1.56%, O=C(c1ccco1)N1CCC2(CCN(CCCn3cccn3)CC2)C(CO)C1 (stereo not given) 0.293%, COc1ccc(NC(=O)C[C@@H]2C[C@@H](C(C)C)[C@H](CC#N)C=C2C)cn1 2.37% [at 57.5 µM], CC(C)CN1CCN(C(=O)c2ccc3c(c2)CC(=O)N3Cc2ccc(F)cc2)CC1 -3.45%, COCCCN1CC2(CCN(C(=O)c3cc(C(C)C)oc3C)CC2)CC1=O 22.9%, CC1(C)C(=O)Nc2ccc(S(=O)(=O)N3CCCC(c4nn[nH]n4)C3)cc21 (stereo not given) -0.875%, C=CCCC(CN1CCOCC1)Oc1ccc(Cn2ccnc2)cn1 (stereo not given) 0.493%, Cc1nnc2n1CCC(NC(=O)c1cccn1C)CC2 (stereo not given) 0.667%, CC(C)C(=O)N1CCC(NCCOc2ccccc2Cl)CC1 12.6%, CCCCc1cc(C[C@@H]2C[C@H](NC(=O)NCC)C2(C)C)no1 1.89% [at 57.5 µM], CN(Cc1cccn1C)C(=O)c1ccccc1F -1.7% [at 57.5 µM], Cc1nnc2n1CCC(NC(=O)c1cnccn1)CC2 (stereo not given) 5.38%, COc1ccc(C(=O)N2CCCCC(NC(=O)NCc3ccco3)C2)cc1 (stereo not given) -2.02%, Cc1c(C(=O)N[C@@H]2COCC[C@H]2Oc2ccc(C(N)=O)cc2)cnn1C -4.06%, CN(C)[C@@H]1CN(Cc2ccncc2F)CC[C@@H]1CNC(=O)C1CC1 1.29%, O=C(Cc1ccsc1)NCC1CCCCC(=O)N1 (stereo not given) -4.46%, CCN1CCN(C(=O)c2cc(-c3ccccc3OC)c3nncn3n2)CC1 9.34% [at 57.5 µM], CN1CCN(C(=O)c2ccc3nnc(C4CCCC4)n3c2)CC1 7.62% [at 57.5 µM], CO[C@@H]1CO[C@H]2[C@@H]1OC[C@@H]2NC(=S)Nc1ccccc1 -0.634% [at 77.1 µM], COC[C@@H]1CN(S(=O)(=O)c2ccccc2C)C[C@H]1c1nc(C)no1 14.3%, CCCN(Cc1ccc(F)cc1)C(=O)c1cnc(-c2ccc(C)cc2)[nH]c1=O 21.5%, CN(C)[C@@H]1C[C@H](CO)[C@@H](O)[C@H]1O -0.471% [at 77.1 µM], O=C(c1cc(-c2ccc(Cl)cc2)c2nncn2n1)N1CCOCC1 25.9% [at 57.5 µM], O=C(CCc1ccccc1)N1CCNc2cnc(Nc3cccnc3)nc2C1 10.1% [at 57.5 µM], O=C(O)c1ccnc(-c2ccnc(NCCN3CCCCC3CO)n2)c1 (stereo not given) 33.8%, CCC1(C(=O)NCCN2CCOCC2)CCCCC(=O)N1 (stereo not given) -6.78%, CCCn1ccnc1-c1c(-c2ccccc2)ncn1CCCC(=O)OC 8.89%, O=C(c1cn[nH]c1)N1CC2(CN(Cc3cccc(Cl)c3)CC2COc2ccccc2)C1 (stereo not given) -3.77% [at 57.5 µM], COc1ccc(-c2nc3c(c(-c4ccccc4)n2)CN(C(=O)c2ccc(F)cc2)CC3)cc1 19.3%, O=C(NCCc1csc(-c2ncccn2)n1)C1NCCc2[nH]cnc21 (stereo not given) 0.698%, COc1ccc2c(c1)C(COCc1ccc(S(C)(=O)=O)cc1)CC(C)(C)O2 (stereo not given) 2.55%, COCc1nc(C2CC(NC(=O)c3nn(C)c4c3CCCC4)C2)cc(=O)[nH]1 (stereo not given) 7.05%, COc1ccc(CC(=O)N2CCCN(c3cc(-c4ccccc4)[nH]n3)CC2)cc1 8.85%
